# Measured values: the supplement of paper PMC10849652
# Amino acid sequences for entries named in this document (tags omitted). A change or cut given only in a name is not applied to a line headed by its entry.
# UniProt Q8N6M0: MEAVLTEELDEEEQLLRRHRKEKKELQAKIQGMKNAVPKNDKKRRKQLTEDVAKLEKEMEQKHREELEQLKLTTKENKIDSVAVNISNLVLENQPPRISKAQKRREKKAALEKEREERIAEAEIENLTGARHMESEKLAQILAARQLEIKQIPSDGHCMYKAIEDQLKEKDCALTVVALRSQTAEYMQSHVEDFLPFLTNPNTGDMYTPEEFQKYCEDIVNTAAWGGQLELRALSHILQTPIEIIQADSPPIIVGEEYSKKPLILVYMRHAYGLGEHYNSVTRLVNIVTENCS
# UniProt P00480: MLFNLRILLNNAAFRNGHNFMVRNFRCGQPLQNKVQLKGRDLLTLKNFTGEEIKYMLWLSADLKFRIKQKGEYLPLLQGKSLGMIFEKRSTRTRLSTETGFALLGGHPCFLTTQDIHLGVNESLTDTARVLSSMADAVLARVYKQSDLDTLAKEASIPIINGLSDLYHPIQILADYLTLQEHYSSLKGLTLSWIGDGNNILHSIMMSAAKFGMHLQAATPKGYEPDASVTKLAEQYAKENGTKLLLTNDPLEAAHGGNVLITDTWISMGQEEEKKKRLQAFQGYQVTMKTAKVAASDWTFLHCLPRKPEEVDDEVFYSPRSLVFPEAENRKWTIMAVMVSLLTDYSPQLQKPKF
# UniProt Q9H300: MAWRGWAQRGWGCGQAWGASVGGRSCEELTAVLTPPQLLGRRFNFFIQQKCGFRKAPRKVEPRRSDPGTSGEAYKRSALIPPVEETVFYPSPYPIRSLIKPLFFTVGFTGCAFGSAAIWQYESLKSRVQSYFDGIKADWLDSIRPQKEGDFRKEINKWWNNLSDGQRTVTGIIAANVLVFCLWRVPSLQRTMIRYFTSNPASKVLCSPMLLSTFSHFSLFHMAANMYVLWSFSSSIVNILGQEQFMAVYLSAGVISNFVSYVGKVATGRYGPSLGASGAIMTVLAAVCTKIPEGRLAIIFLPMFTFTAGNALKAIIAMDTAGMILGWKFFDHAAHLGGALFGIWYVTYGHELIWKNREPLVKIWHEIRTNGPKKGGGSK
# UniProt Q6PK18: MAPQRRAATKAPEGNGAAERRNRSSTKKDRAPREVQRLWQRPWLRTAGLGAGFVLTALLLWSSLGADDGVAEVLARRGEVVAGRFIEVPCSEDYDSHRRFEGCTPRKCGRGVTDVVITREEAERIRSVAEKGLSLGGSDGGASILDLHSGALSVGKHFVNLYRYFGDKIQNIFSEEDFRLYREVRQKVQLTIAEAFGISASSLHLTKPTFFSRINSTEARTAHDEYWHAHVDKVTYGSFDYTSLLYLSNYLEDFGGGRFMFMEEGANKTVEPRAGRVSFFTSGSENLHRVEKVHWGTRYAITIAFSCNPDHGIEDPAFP
# UniProt O43929: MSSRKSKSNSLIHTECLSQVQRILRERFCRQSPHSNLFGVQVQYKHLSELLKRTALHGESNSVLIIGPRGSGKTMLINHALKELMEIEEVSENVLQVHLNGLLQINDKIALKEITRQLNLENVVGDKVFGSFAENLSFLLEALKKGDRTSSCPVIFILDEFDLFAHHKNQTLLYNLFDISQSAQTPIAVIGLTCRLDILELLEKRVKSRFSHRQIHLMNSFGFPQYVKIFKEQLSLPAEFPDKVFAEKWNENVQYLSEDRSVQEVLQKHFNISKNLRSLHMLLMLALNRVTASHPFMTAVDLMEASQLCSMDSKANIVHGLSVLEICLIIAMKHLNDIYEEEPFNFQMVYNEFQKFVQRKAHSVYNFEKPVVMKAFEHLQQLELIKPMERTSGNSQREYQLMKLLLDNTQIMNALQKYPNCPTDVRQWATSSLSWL
# UniProt Q9UKX7: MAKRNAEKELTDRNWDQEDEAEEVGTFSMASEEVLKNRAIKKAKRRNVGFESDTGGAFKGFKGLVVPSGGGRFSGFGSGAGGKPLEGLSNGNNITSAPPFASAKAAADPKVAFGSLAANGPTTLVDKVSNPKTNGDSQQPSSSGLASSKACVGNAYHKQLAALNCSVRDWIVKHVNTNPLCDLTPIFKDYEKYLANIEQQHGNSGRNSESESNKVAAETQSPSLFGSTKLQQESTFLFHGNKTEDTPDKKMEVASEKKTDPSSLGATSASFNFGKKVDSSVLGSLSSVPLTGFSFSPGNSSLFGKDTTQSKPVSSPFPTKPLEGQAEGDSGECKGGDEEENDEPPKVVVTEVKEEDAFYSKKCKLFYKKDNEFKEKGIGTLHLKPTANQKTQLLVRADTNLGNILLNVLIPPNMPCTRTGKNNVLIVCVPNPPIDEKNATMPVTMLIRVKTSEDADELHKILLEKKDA
# UniProt Q9UNF0: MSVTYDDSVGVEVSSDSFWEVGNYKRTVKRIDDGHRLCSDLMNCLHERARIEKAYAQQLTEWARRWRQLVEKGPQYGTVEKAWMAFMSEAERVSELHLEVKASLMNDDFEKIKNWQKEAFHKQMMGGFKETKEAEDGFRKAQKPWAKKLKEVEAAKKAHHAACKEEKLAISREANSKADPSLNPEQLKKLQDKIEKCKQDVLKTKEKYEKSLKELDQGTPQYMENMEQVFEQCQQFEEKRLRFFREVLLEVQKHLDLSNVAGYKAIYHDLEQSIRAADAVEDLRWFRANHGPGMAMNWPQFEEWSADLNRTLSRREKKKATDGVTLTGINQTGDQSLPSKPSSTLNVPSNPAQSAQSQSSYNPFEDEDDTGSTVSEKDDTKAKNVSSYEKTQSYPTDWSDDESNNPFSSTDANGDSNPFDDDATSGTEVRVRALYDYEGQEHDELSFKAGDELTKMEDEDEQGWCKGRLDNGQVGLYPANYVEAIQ
# UniProt Q9H4L5: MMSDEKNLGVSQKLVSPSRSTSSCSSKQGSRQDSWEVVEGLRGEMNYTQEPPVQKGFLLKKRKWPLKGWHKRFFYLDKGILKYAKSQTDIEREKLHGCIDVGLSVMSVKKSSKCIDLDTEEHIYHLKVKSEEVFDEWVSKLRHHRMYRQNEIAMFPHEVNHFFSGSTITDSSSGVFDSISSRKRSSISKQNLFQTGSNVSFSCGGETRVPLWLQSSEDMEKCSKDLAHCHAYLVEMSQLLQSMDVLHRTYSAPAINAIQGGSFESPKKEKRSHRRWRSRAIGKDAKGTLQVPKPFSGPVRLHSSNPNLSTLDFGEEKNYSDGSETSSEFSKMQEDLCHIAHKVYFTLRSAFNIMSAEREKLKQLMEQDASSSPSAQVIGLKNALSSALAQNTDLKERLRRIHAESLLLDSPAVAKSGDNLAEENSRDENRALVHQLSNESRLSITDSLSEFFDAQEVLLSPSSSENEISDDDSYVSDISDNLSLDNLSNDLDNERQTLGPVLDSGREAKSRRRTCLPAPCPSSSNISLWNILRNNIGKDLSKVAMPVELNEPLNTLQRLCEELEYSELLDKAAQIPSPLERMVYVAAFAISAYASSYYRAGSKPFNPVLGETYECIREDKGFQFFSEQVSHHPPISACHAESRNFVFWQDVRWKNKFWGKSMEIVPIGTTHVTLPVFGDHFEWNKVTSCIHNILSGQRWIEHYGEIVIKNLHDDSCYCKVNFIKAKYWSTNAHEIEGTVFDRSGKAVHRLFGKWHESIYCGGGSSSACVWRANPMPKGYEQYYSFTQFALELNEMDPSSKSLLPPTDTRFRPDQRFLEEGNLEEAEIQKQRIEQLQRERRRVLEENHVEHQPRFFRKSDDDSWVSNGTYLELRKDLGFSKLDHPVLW
# UniProt Q9H074: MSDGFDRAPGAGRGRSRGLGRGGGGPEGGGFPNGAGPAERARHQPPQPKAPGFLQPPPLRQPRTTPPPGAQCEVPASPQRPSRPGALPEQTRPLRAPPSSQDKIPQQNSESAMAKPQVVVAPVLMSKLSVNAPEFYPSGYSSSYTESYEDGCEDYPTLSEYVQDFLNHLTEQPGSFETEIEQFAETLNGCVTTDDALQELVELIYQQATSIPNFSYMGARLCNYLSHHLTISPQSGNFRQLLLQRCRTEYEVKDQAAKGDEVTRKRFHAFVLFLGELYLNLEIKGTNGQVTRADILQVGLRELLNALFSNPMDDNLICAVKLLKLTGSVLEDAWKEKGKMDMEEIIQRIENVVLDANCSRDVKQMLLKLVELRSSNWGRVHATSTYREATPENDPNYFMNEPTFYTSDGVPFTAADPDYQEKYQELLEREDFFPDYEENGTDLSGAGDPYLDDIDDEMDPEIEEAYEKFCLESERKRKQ
# UniProt Q9BTK6, whole entry, looked up: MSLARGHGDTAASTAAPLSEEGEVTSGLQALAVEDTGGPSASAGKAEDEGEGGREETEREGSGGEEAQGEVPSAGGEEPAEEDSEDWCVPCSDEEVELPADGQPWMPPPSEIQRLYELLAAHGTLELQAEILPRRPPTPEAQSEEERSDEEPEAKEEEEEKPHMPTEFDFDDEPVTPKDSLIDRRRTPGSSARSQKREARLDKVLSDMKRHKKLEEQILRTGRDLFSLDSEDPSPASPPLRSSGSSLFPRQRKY
# UniProt Q9NVE7: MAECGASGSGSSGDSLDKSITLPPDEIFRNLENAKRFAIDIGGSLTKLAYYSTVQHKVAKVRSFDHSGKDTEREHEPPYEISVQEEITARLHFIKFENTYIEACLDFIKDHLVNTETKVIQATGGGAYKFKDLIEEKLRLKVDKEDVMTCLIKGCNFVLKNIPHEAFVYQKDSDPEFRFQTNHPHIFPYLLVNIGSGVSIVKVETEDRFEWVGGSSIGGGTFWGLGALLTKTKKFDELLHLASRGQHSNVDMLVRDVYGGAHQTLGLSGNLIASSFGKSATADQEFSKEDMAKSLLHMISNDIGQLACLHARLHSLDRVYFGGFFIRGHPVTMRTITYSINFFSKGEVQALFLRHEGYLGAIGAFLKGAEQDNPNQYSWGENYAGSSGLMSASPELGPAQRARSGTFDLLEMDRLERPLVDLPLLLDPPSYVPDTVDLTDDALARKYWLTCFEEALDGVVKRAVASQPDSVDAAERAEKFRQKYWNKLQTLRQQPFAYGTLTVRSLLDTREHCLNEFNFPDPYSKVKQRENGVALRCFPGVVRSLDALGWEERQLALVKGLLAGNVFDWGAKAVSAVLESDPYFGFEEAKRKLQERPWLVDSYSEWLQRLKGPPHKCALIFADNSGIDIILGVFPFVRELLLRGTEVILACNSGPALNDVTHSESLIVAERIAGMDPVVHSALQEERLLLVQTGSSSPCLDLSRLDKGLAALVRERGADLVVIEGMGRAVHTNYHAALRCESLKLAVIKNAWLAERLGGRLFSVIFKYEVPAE
# UniProt Q9UBU9: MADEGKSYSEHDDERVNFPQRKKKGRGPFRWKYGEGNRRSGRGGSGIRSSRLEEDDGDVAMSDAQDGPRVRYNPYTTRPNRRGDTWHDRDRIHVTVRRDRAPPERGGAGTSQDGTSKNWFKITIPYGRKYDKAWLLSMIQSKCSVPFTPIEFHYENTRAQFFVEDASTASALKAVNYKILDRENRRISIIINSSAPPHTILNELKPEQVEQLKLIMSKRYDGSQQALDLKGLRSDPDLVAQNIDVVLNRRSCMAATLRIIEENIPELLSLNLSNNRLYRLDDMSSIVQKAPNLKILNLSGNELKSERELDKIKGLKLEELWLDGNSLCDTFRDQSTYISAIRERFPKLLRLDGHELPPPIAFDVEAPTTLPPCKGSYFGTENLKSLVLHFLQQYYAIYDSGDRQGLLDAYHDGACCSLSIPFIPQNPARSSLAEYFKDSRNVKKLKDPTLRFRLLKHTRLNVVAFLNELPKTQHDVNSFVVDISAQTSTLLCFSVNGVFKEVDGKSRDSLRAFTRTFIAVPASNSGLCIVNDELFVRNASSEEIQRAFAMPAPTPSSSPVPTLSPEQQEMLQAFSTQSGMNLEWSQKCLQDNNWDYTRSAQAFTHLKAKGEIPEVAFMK
# UniProt Q9NPF4: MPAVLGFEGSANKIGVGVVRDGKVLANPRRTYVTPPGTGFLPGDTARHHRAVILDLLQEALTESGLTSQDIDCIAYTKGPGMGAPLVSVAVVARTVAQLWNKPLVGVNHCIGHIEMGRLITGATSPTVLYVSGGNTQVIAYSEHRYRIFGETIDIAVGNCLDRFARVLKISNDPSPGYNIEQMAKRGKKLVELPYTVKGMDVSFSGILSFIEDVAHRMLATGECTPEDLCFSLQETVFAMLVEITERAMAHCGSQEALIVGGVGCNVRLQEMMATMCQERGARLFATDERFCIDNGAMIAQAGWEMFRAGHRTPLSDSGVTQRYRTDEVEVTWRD
# UniProt Q96BN8, whole entry, looked up: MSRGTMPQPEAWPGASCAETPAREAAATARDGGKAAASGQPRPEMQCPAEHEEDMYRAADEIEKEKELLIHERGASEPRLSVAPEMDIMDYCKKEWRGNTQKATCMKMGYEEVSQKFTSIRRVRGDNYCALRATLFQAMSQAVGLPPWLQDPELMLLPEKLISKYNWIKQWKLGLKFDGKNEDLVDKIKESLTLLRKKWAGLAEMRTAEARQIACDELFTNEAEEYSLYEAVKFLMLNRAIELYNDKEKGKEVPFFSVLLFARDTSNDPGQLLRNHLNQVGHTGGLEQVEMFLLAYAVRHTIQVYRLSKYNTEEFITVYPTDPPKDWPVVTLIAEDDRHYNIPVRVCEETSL
# The other results are listed elsewhere or left out.
# How the values were obtained:
# Experiment in all cases: log2 fold change, soluble protein after heating vs DMSO (PISA); higher = thermal stabilisation; K562 lysate, 10 uM; active = over 0.2 and 3.5 SD of the protein, either way, in both replicates (recomputed)
# [1] = compound: CS(=O)(=O)CCNCc1ccc(-c2ccc3ncnc(Nc4ccc(OCc5cccc(F)c5)c(Cl)c4)c3c2)o1 [lapatinib]
# How it was run: (§1)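 A 30 min treatment with 10 μM compound was applied to crude K562 extract at 1 mg/mL protein in PBS pH 7.4 with 1 mM MgCl2. Heating for 3 min spanned 48°C-58°C, after which aliquots were pooled, adjusted to 0.5% NP-40 at 4°C and spun at 21,000xg for 90 min. TMTpro 16plex LC-MS/MS of the supernatant, with channel sums equalised, gave values recorded as log-two fold change in thermal stability against solvent controls, from duplicates.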
# [2] = compound: CS(=O)(=O)N1CCN(Cc2cc3nc(-c4cccc5[nH]ncc45)nc(N4CCOCC4)c3s2)CC1 [pictilisib]
# How it was run: as §1
# [3] = compound: C[C@@H](Oc1cc(-c2cnn(C3CCNCC3)c2)cnc1N)c1c(Cl)ccc(F)c1Cl [crizotinib]
# How it was run: as §1
# [4] = compound: C[C@H](C1=CC=C(C=C1)C(=O)NC2=C3C=CNC3=NC=C2)N
# How it was run: as §1
# [5] = compound: C[C@H](Nc1ncnc2nc[nH]c12)c1cc2cccc(Cl)c2c(=O)n1-c1ccccc1 [duvelisib]
# How it was run: as §1
# [6] = compound: Cc1cc(Nc2cc(CN3CCOCC3)c3nc(C)c(Cc4ccc(Cl)cc4F)n3n2)n[nH]1 [gandotinib]
# How it was run: as §1
# [7] = compound: Cc1cc(Nc2cc(N3CCN(C)CC3)nc(Sc3ccc(NC(=O)C4CC4)cc3)n2)n[nH]1 [tozasertib]
# How it was run: as §1
# [8] = compound: Cc1ccc(-n2nc(C(C)(C)C)cc2NC(=O)Nc2ccc(OCCN3CCOCC3)c3ccccc23)cc1 [doramapimod]
# How it was run: as §1
# [9] = compound: Cc1ccc(NC(=O)c2ccc(CN3CC[C@H](N(C)C)C3)c(C(F)(F)F)c2)cc1Nc1nccc(-c2cncnc2)n1 [bafetinib]
# How it was run: as §1
# [10] = compound: Cc1cccc(CC(=O)N2CCc3c2ccc(-c2cn(C)c4ncnc(N)c24)c3F)n1
# How it was run: as §1
# [11] = compound: Cc1cn(-c2cc(NC(=O)c3ccc(C)c(Nc4nccc(-c5cccnc5)n4)c3)cc(C(F)(F)F)c2)cn1 [nilotinib]
# How it was run: as §1
# [12] = compound: Cc1nc(Nc2n[nH]c3c2CN(C(=O)N[C@H](CN(C)C)c2ccccc2)C3(C)C)c2sccc2n1
# How it was run: as §1
# [13] = compound: Cc1nc(Nc2ncc(C(=O)Nc3c(C)cccc3Cl)s2)cc(N2CCN(CCO)CC2)n1 [dasatinib]
# How it was run: as §1
# [14] = compound: Cc1ncc(-c2ccnc(Nc3ccc(S(C)(=O)=O)cc3)n2)n1C(C)C
# How it was run: as §1
# [15] = compound: Cn1cc(-c2ccc3c(c2)CCN3C(=O)Cc2cccc(C(F)(F)F)c2)c2c(N)ncnc21
# How it was run: as §1
# [16] = compound: Cn1cc(CNCC2CCN(c3ncc(C(=O)NO)cn3)CC2)c2ccccc21 [quisinostat]
# How it was run: as §1
# [17] = compound: Cn1cncc1[C@@](N)(c1ccc(Cl)cc1)c1ccc2c(c1)c(-c1cccc(Cl)c1)cc(=O)n2C [tipifarnib]
# How it was run: as §1
# [18] = compound: NC(=O)Nc1cc(-c2cccc(F)c2)sc1C(=O)N[C@H]1CCCNC1
# How it was run: as §1
# [19] = compound: NC(=O)c1cnc(N[C@@H]2CCCC[C@@H]2N)nc1Nc1cccc(-n2nccn2)c1
# How it was run: as §1
# [20] = compound: NC1(c2ccc(-c3nc4ccn5c(=O)[nH]nc5c4cc3-c3ccccc3)cc2)CCC1
# How it was run: as §1
Target,log2 fold change [1],log2 fold change [2],log2 fold change [3],log2 fold change [4],log2 fold change [5],log2 fold change [6],log2 fold change [7],log2 fold change [8],log2 fold change [9],log2 fold change [10],log2 fold change [11],log2 fold change [12],log2 fold change [13],log2 fold change [14],log2 fold change [15],log2 fold change [16],log2 fold change [17],log2 fold change [18],log2 fold change [19],log2 fold change [20]
OTUD6B (UniProt Q8N6M0),inactive: 0.007,inactive: -0.045,inactive: 0.025,inactive: 0.113,inactive: -0.026,inactive: -0.106,inactive: 0.101,inactive: -0.015,inactive: -0.026,inactive: -0.07,inactive: -0.041,inactive: -0.039,inactive: 0.002,inactive: 0.004,inactive: 0.025,inactive: -0.001,inactive: 0.025,inactive: 0.031,inactive: -0.011,inactive: 0.179
OTC (UniProt P00480),inactive: -0.118,inactive: -0.026,inactive: -0.273,active: -4.33,inactive: 0.159,inactive: -0.003,inactive: 0.161,inactive: 0.168,inactive: -0.412,inactive: 0.377,inactive: -0.105,inactive: -0.023,inactive: -0.347,inactive: -0.159,inactive: 0.106,inactive: -0.492,inactive: 0.054,inactive: -0.055,inactive: 0.071,inactive: -0.075
PARL (UniProt Q9H300),inactive: -0.05,inactive: 0.032,inactive: -0.034,inactive: -0.095,inactive: -0.038,inactive: 0.018,inactive: 0.018,inactive: 0.011,inactive: -0.151,inactive: 0.018,inactive: 0.053,inactive: -0.018,inactive: 0.041,inactive: 0.043,inactive: -0.012,inactive: -0.022,inactive: -0.042,inactive: 0.038,inactive: -0.003,inactive: -0.007
OGFOD3 (UniProt Q6PK18),inactive: -0.007,inactive: 0.018,inactive: 0.006,inactive: 0.021,inactive: 0.047,inactive: 0.03,inactive: 0.014,inactive: 0.109,inactive: 0.014,inactive: -0.006,inactive: -0.031,inactive: -0.114,inactive: -0.041,inactive: -0.009,inactive: 0.118,inactive: 0.008,inactive: -0.014,inactive: 0.072,inactive: 0.011,inactive: 0.096
ORC4 (UniProt O43929),inactive: -0.023,inactive: -0.021,inactive: -0.092,inactive: 0.009,inactive: -0.02,inactive: -0.161,inactive: -0.054,inactive: -0.036,inactive: -0.069,inactive: -0.005,inactive: 0.051,inactive: 0.024,inactive: -0.078,inactive: -0.023,inactive: 0.036,inactive: -0.056,inactive: -0.007,inactive: 0.076,inactive: 0.005,inactive: 0.017
PARD3 (UniProt Q8TEW0),inactive: -0.143,inactive: -0.155,inactive: -0.096,inactive: 0.014,inactive: -0.102,inactive: 0.122,inactive: 0.064,inactive: -0.058,inactive: -0.054,inactive: 0.069,inactive: -0.114,inactive: -0.109,inactive: 0.021,inactive: -0.031,inactive: 0.024,inactive: -0.002,inactive: 0.121,inactive: 0.029,inactive: 0.199,inactive: 0.105
NUP50 (UniProt Q9UKX7),inactive: 0.017,inactive: -0.009,inactive: 0.032,inactive: -0.129,inactive: -0.012,inactive: 0.061,inactive: 0.024,inactive: -0.008,inactive: -0.016,inactive: 0.044,inactive: 0.005,inactive: 0.011,inactive: 0.042,inactive: -0.001,inactive: -0.045,inactive: 0.046,inactive: 0.012,inactive: -0.005,inactive: 0.008,inactive: 0.035
PACSIN2 (UniProt Q9UNF0),inactive: 0.001,inactive: -0.006,inactive: 0.039,inactive: 0.037,inactive: -0.008,inactive: -0.07,inactive: -0.005,inactive: -0.017,inactive: -0.002,inactive: -0.056,inactive: -0.001,inactive: -0.009,inactive: 0.004,inactive: 0.001,inactive: 0.037,inactive: 0.028,inactive: 0.041,inactive: -0.001,inactive: -0.005,inactive: -0.005
OSBPL3 isoform 2 (UniProt Q9H4L5),inactive: 0.073,inactive: -0.039,inactive: 0.014,inactive: -0.045,inactive: 0.03,inactive: -0.052,inactive: -0.005,inactive: 0.107,inactive: 0.269,inactive: 0.035,inactive: 0.085,inactive: -0.048,inactive: -0.191,inactive: -0.026,inactive: 0.024,inactive: -0.051,inactive: -0.02,inactive: 0.003,inactive: 0.017,inactive: -0.151
PAIP1 (UniProt Q9H074),inactive: 0.008,inactive: -0.038,inactive: 0.028,inactive: -0.061,inactive: -0.028,inactive: 0.038,inactive: 0.009,inactive: -0.007,inactive: -0.02,inactive: 0.007,inactive: 0.01,inactive: -0.006,inactive: 0.067,inactive: 0.016,inactive: 0.054,inactive: 0.054,inactive: 0.004,inactive: -0.041,inactive: -0.017,inactive: -0.001
PAGR1 (UniProt Q9BTK6),inactive: -0.062,inactive: 0.017,inactive: 0.02,inactive: 0.018,inactive: 0.048,inactive: -0.033,inactive: -0.061,inactive: 0.056,inactive: 0.021,inactive: -0.16,inactive: -0.074,inactive: 0.011,inactive: -0.023,inactive: 0.043,inactive: -0.08,inactive: -0.057,inactive: -0.075,inactive: 0.064,inactive: 0.142,inactive: -0.135
PANK4 (UniProt Q9NVE7),inactive: -0.019,inactive: -0.037,inactive: -0.052,inactive: -0.049,inactive: -0.009,inactive: 0.125,inactive: 0.001,inactive: -0.001,inactive: -0.06,inactive: 0.022,inactive: 0.028,inactive: -0.006,inactive: -0.086,inactive: -0.006,inactive: 0.003,inactive: -0.054,inactive: 0.009,inactive: 0.038,inactive: -0.003,inactive: -0.045
NXF1 (UniProt Q9UBU9),inactive: -0.064,inactive: -0.07,inactive: -0.035,inactive: 0.111,inactive: -0.013,inactive: -0.178,inactive: -0.028,inactive: 0.013,inactive: -0.02,inactive: 0.003,inactive: 0.014,inactive: -0.022,inactive: -0.075,inactive: -0.002,inactive: 0.006,inactive: -0.016,inactive: -0.003,inactive: 0.031,inactive: 0,inactive: 0.075
OSGEP (UniProt Q9NPF4),inactive: -0.011,inactive: -0.025,inactive: -0.006,inactive: -0.07,inactive: -0.037,inactive: -0.024,inactive: 0.043,inactive: -0.035,inactive: -0.008,inactive: 0.033,inactive: -0.005,inactive: 0.008,inactive: 0.002,inactive: 0.018,inactive: 0.025,inactive: -0.006,inactive: 0.026,inactive: -0.012,inactive: -0.027,inactive: 0.03
OSBPL8 (UniProt Q9BZF1),inactive: 0.01,inactive: 0.023,inactive: -0.039,inactive: -0.003,inactive: -0.038,inactive: -0.226,inactive: -0.009,inactive: 0.051,inactive: -0.041,inactive: -0.021,inactive: 0.011,inactive: 0.035,inactive: -0.015,inactive: -0.031,inactive: 0.005,inactive: -0.009,inactive: -0.012,inactive: 0.008,inactive: -0.002,inactive: -0.045
OTULIN (UniProt Q96BN8),inactive: -0.001,inactive: 0.021,inactive: -0.027,inactive: -0.019,inactive: -0.025,inactive: -0.019,inactive: 0.018,inactive: 0.087,inactive: -0.049,inactive: 0.04,inactive: 0.005,inactive: -0.019,inactive: 0.114,inactive: -0.04,inactive: 0.031,inactive: 0.003,inactive: -0.008,inactive: 0.02,inactive: 0.014,inactive: 0.079

# Reprinted at random: 2 records from the list.
Target,log2 fold change [1],log2 fold change [2],log2 fold change [3],log2 fold change [4],log2 fold change [5],log2 fold change [6],log2 fold change [7],log2 fold change [8],log2 fold change [9],log2 fold change [10],log2 fold change [11],log2 fold change [12],log2 fold change [13],log2 fold change [14],log2 fold change [15],log2 fold change [16],log2 fold change [17],log2 fold change [18],log2 fold change [19],log2 fold change [20]
OSBPL8 (UniProt Q9BZF1),inactive: 0.01,inactive: 0.023,inactive: -0.039,inactive: -0.003,inactive: -0.038,inactive: -0.226,inactive: -0.009,inactive: 0.051,inactive: -0.041,inactive: -0.021,inactive: 0.011,inactive: 0.035,inactive: -0.015,inactive: -0.031,inactive: 0.005,inactive: -0.009,inactive: -0.012,inactive: 0.008,inactive: -0.002,inactive: -0.045
PACSIN2 (UniProt Q9UNF0),inactive: 0.001,inactive: -0.006,inactive: 0.039,inactive: 0.037,inactive: -0.008,inactive: -0.07,inactive: -0.005,inactive: -0.017,inactive: -0.002,inactive: -0.056,inactive: -0.001,inactive: -0.009,inactive: 0.004,inactive: 0.001,inactive: 0.037,inactive: 0.028,inactive: 0.041,inactive: -0.001,inactive: -0.005,inactive: -0.005
